Assay results taken from paper PMC3093366, “A Component of the Xanthomonadaceae Type IV Secretion System Combines a VirB7 Motif with a N0 Domain Found in Outer Membrane Transport Proteins” (PLoS Pathogens, 2011).
These are yes or no findings as the source states them, for the method shown.

Biological target: VirB7_(XAC2622_51–134) (Xanthomonas citri subsp. citri strain 306)
Assay: cross-linking; 0.01% (v/v) glutaraldehyde, 20 min, protein at 27 to 720 µM, 16% Tricine SDS-PAGE; both purified

**Q.** How did the binding turn out when “VirB7_(XAC2622_51–134) (from UniProt A0AAI7ZGD2 51-134) (domain or fragment)” was run?
**A.** no binding (tested: 720 µM)
